Data from the supplement of paper PMC7024190.
Counter-ions that a name gives are not always drawn. The list shows a part of the results. Repeats in this data set agree poorly, so a single value says little.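 The cells were human embryonic kidney cells carrying a Renilla luciferase gene, driven by the HSV-TK promoter, on a plasmid put in briefly by transfection. This is the first-round screen of about ten thousand compounds, looking for ones that raise reporter output.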

System: HEK 293FT
Experiment: log relative Renilla luciferase luminescence (reporter expression vs reference, reference not stated) (log (base not stated)); higher = higher recombinant reporter expression
Conditions: 10 µM; time after transfection 48 h

NCCc1c[nH]cn1 [histamine dihydrochloride] and Nc1[nH]cnc2ncnc1-2 [adenine] are within 0.2 log units of each other in log: 0.0715 for the first, -0.0423 for the second.

Going from CCCOc1cc(N)ccc1C(=O)OCCN(CC)CC [propoxycaine hydrochloride] to CCCCN(CCCC)CCCOC(=O)c1ccc(N)cc1 [butacaine], the log rises from -0.176 to 0.172.

OC(Cn1cncn1)(Cn1cncn1)c1ccc(F)cc1F [fluconazole] and CCN(CC)CCCC(C)Nc1ccnc2cc(Cl)ccc12 (stereo not drawn) [chloroquine diphosphate] are within 0.2 log units of each other in log: 0.128 for the first, -0.0201 for the second.

Compared with O.O.O=C([O-])CN(CCN(CC(=O)[O-])CC(=O)O)CC(=O)O.[Na+].[Na+] [edetate disodium], O=C(O)CN(CCN(CC(=O)O)CC(=O)O)CC(=O)O.[Na+].[Na+].[Na+] [trisodium ethylenediamine tetracetate] is lower in log: 0.0553 for the first, -0.175 for the second.

Compared with CC(=O)[C@@]1(O)CC[C@H]2[C@@H]3C=C(Cl)C4=CC(=O)[C@@H]5C[C@@H]5[C@]4(C)[C@H]3CC[C@@]21C [cyproterone], CC(=O)OCC(=O)[C@@]1(O)CC[C@H]2[C@@H]3CCC4=CC(=O)CC[C@]4(C)[C@H]3[C@@H](O)C[C@@]21C [hydrocortisone acetate] is higher in log: -0.086 for the first, 0.159 for the second.

CC[N+](C)(C)c1cccc(O)c1 [edrophonium chloride] and NC(=O)c1ccccc1O [salicylamide] are within 0.2 log units of each other in log: 0.0345 for the first, 0.119 for the second.

First: COc1c(-c2coc3cc4c(cc3c2=O)CC(O)C(C)(C)O4)ccc2c1C=CC(C)(C)O2 (stereo not drawn) [mundulone]
Second: COc1cc2occ(-c3ccc(OC)c(OC)c3OC)c(=O)c2cc1OC [6,7,2',3',4'-pentamethoxyisoflavone]
The log of the first is lower: -0.581 for the first, 0.0453 for the second.

Compared with Cc1cn[nH]c1 [fomepizole hydrochloride], CN(C)c1cnccn1 [ampyzine sulfate] is lower in log: 0.185 for the first, -0.0911 for the second.

Cc1cn[nH]c1 [fomepizole] and Cc1ncc([N+](=O)[O-])n1C [dimetridazole] are within 0.2 log units of each other in log: 0.153 for the first, 0.0703 for the second.

CC(=O)OCC(=O)[C@@]1(O)CC[C@H]2[C@@H]3CCC4=CC(=O)C=C[C@]4(C)[C@@]3(Cl)[C@@H](Cl)C[C@@]21C [dichlorisone acetate] and CC(=O)OCC(=O)[C@@]1(O)CC[C@H]2[C@@H]3CCC4=CC(=O)CC[C@]4(C)[C@@]3(F)[C@@H](O)C[C@@]21C [fludrocortisone acetate] are within 0.2 log units of each other in log: -0.0182 for the first, -0.0916 for the second.

Compared with O=C(O)CN1C(=O)c2cccc3cccc(c23)C1=O [alrestatin], COc1ccccc1-c1coc2cc(O)ccc2c1=O [7-hydroxy-2'-methoxyisoflavone] is higher in log: -0.154 for the first, 0.0464 for the second.

FC(F)(F)C(Cl)Br (stereo not drawn) [halothane] and FCOC(C(F)(F)F)C(F)(F)F [sevoflurane] are within 0.2 log units of each other in log: -0.0802 for the first, 0.109 for the second.

Cc1ccc(C(=O)c2ccc(CC(=O)O)n2C)cc1 [tolmetin sodium] and Cc1cccc(C)c1NC(=O)c1ccccc1C(=O)O [ftaxilide] are within 0.2 log units of each other in log: -0.0519 for the first, -0.00108 for the second.

First: O=C(O)CCCCCCCC(=O)O [azelaic acid]
Second: NC(=O)N[C@@H](CCC(=O)O)C(=O)O [carglumic acid]
The log of the first is lower: -0.193 for the first, 0.0257 for the second.

CC(=O)O[C@@H]1C[C@H]2C(C)(C)C(=O)CC[C@]2(C)[C@H]2CC[C@@]3(C)[C@H](c4ccoc4)OC(=O)[C@H]4O[C@]43[C@@]21C [dihydrogedunin] and COC(=O)C[C@H]1C(C)(C)[C@@H](O)[C@@H]2CC3=C4C=C(OC)O[C@@H](c5ccoc5)[C@]4(C)CCC3[C@@]1(C)C2=O (stereo partly drawn) [3-deoxo-3beta-hydroxymexicanolide 16-enol ether] are within 0.2 log units of each other in log: 0.216 for the first, 0.0826 for the second.

CC12CCC3C(CC3(C)C)C(C)(CCC1=O)O2 (stereo not drawn) [3,7-epoxycaryophyllan-6-one] and CC(=O)[C@@]12O[C@](C)(c3ccccc3)O[C@@H]1C[C@H]1[C@@H]3CCC4=CC(=O)CC[C@]4(C)[C@H]3CC[C@@]12C [algestone acetophenide] are within 0.2 log units of each other in log: 0.0684 for the first, -0.0732 for the second.

NS(=O)(=O)c1cc(C2(O)NC(=O)c3ccccc32)ccc1Cl (stereo not drawn) [chlorthalidone] and O=C1OC(c2ccc(O)cc2)(c2ccc(O)cc2)c2ccccc21 [phenolphthalein] are within 0.2 log units of each other in log: -0.09 for the first, 0.0225 for the second.

CCCCCCCCCCCCCCCC(=O)OC/C=C(C)/C=C/C=C(C)/C=C/C1=C(C)CCCC1(C)C [retinyl palmitate] and CCCCCC1C(=O)CCC1CC(=O)OC (stereo not drawn) [dihydrojasmonic acid, methyl ester] are within 0.2 log units of each other in log: 0.214 for the first, 0.0513 for the second.

C=CC(N)CCC(=O)O (stereo not drawn) [vigabatrin] and C[Se]CC[C@H](N)C(=O)O [selenomethionine] are within 0.2 log units of each other in log: 0.0621 for the first, 0.0703 for the second.

Cc1ncc(C[n+]2csc(CCO)c2C)c(N)n1 [thiamine] and CCCc1ncc(C[n+]2ccccc2C)c(N)n1 [amprolium] are within 0.2 log units of each other in log: 0.00912 for the first, 0.0154 for the second.

CC(C)c1c(C(=O)Nc2ccccc2)c(-c2ccccc2)c(-c2ccc(F)cc2)n1CC[C@@H](O)C[C@@H](O)CC(=O)O [atorvastatin calcium] and CC(C)c1nc(N(C)S(C)(=O)=O)nc(-c2ccc(F)cc2)c1/C=C/[C@@H](O)C[C@@H](O)CC(=O)O [rosuvastatin calcium] are within 0.2 log units of each other in log: 0.0217 for the first, 0.0409 for the second.

Compared with CCN[C@H]1CN(CCCOC)S(=O)(=O)c2sc(S(N)(=O)=O)cc21 [brinzolamide], CC(=O)OCC(=O)NCCCOc1cccc(CN2CCCCC2)c1 [roxatidine acetate hydrochloride] is higher in log: -0.128 for the first, 0.218 for the second.

OC[C@@H](O)[C@@H](O)[C@H](O)[C@H](O)CO [mannitol] and CS(=O)(=O)c1ccc([C@@H](O)[C@@H](CF)NC(=O)C(Cl)Cl)cc1 [florfenicol] are within 0.2 log units of each other in log: -0.176 for the first, -0.0505 for the second.

C=CCc1ccc(O)c(OC)c1 [eugenol] and COc1ccc2c(C)cc(=O)oc2c1 [hymecromone methyl ether] are within 0.2 log units of each other in log: 0.157 for the first, 0.0285 for the second.

CCn1cc(C(=O)O)c(=O)c2cc(F)c(N3CCNCC3)nc21 [enoxacin] and CCOC(=O)N1CCC(=C2c3ccc(Cl)cc3CCc3cccnc32)CC1 [loratadine] are within 0.2 log units of each other in log: 0.129 for the first, 0.142 for the second.

COc1cc(O)c(C(=O)/C=C/c2ccc(OC)c(O)c2)c(OC)c1 [2',3-dihydroxy-4,4',6'-trimethoxychalcone] and COc1cc(OC)c2c(=O)c(OC)c(-c3ccccc3)oc2c1 [galangin trimethyl ether] are within 0.2 log units of each other in log: 0.182 for the first, 0.26 for the second.

CC(CCC(=O)O)[C@H]1CCC2C3C[C@H](O)[C@@H]4C[C@H](O)CC[C@]4(C)C3CC[C@@]21C (stereo partly drawn) [alpha-hydroxydeoxycholic acid] and C=C(C)[C@@H]1CC[C@]2(C(=O)O)CC[C@]3(C)[C@H](CC[C@@H]4[C@@]5(C)CC[C@H](O)C(C)(C)[C@@H]5CC[C@]43C)[C@@H]12 [betulinic acid] are within 0.2 log units of each other in log: 0.161 for the first, 0.0256 for the second.

C=CC(C)(O)CCC=C(C)CCC=C(C)C (mixture of isomers) [nerolidol] and CCCCCN(C)CCC(O)(P(=O)(O)O)P(=O)(O)O [ibandronate sodium] are within 0.2 log units of each other in log: 0.0938 for the first, -0.024 for the second.

CC(C(=O)O)c1cccc(Oc2ccccc2)c1 (stereo not drawn) [fenoprofen] and Nc1ccc(S(=O)(=O)NC(=O)c2ccccc2)cc1 [sulfabenzamide] are within 0.2 log units of each other in log: -0.0656 for the first, -0.0331 for the second.

COc1cc(OC)c2c(=O)cc(-c3ccccc3)oc2c1 [chrysin dimethyl ether] and COc1ccc(-c2coc3cc(O)ccc3c2=O)cc1 [formononetin] are within 0.2 log units of each other in log: 0.0209 for the first, 0.108 for the second.

CC(C)NCC(O)COc1cccc2ccccc12 (racemic) [propranolol hydrochloride (+/-)] and COC(=O)[C@H](c1ccccc1Cl)N1CCc2sccc2C1 [clopidogrel sulfate] are within 0.2 log units of each other in log: -0.0459 for the first, 0.124 for the second.

C[N+](C)(C)CCOP(=O)(O)OP(=O)([O-])OC[C@H]1O[C@@H](n2ccc(N)nc2=O)[C@H](O)[C@@H]1O [citicoline] and Nc1nc(F)nc2c1ncn2[C@@H]1O[C@H](COP(=O)(O)O)[C@@H](O)[C@@H]1O [fludarabine phosphate] are within 0.2 log units of each other in log: 0.00988 for the first, -0.0337 for the second.

C=C(CC)C(=O)c1ccc(OCC(=O)O)c(Cl)c1Cl [ethacrynic acid] and C[C@H](N[C@@H](CCc1ccccc1)C(=O)O)C(=O)N1CCC[C@H]1C(=O)O [enalaprilat] are within 0.2 log units of each other in log: -0.00179 for the first, -0.0373 for the second.

Compared with Oc1ccc2c(c1)OC[C@]1(O)Cc3cc(O)c(O)cc3[C@H]21 [brazilin], COc1cc2c(cc1OC)C1C(=O)c3c(O)cc4c(c3OC1CO2)C=CC(C)(C)O4 (stereo not drawn) [alpha-toxicarol (dl)] is lower in log: -0.0704 for the first, -0.601 for the second.

C1N2CN3CN1CN(C2)C3 [methenamine] and c1ccc2c(c1)CCCC2C1=NCCN1 (stereo not drawn) [tetrahydrozoline hydrochloride] are within 0.2 log units of each other in log: 0.0155 for the first, 0.000294 for the second.

O=C(O)C1=C[C@@H](O)[C@@H](O)[C@H](O)C1 [shikimic acid] and C[C@@H](O)[C@H]1C(=O)N2C(C(=O)O)=C(SCCNC=N)C[C@H]12 [imipenem] are within 0.2 log units of each other in log: 0.15 for the first, 0.0961 for the second.

N[C@@H](CC(=O)O)C(=O)O [aspartic acid (l)] and CN(C)[C@@H]1C(O)=C(C(N)=O)C(=O)[C@@]2(O)C(O)=C3C(=O)c4c(O)cccc4[C@@](C)(O)[C@H]3C[C@@H]12 [tetracycline hydrochloride] are within 0.2 log units of each other in log: 0.131 for the first, 0.0856 for the second.

First: Oc1c(Br)cc(Br)c2cccnc12 [broxyquinoline]
Second: O=C1c2c(O)cc(CO)cc2C(OC2OC(CO)C(O)C(O)C2O)c2cccc(OC3OC(CO)C(O)C(O)C3O)c21 (stereo not drawn) [casanthranol [cascaroside a shown]]
The log of the first is lower: -1.04 for the first, -0.122 for the second.

COCCCC/C(=N\OCCN)c1ccc(C(F)(F)F)cc1 [fluvoxamine maleate] and C[C@]12CCC(=O)C=C1CC[C@@H]1[C@@H]2C(=O)C[C@@]2(C)[C@H]1CC[C@]2(O)C(=O)CO [cortisone] are within 0.2 log units of each other in log: 0.195 for the first, 0.0499 for the second.
